These results are taken from publication PMC6113293, “Phosphorylation of ULK1 affects autophagosome fusion and links chaperone-mediated autophagy to macroautophagy” (Nature Communications, 2018).

Amino acid sequences for entries named in this document (tags omitted).
UniProt Q14457: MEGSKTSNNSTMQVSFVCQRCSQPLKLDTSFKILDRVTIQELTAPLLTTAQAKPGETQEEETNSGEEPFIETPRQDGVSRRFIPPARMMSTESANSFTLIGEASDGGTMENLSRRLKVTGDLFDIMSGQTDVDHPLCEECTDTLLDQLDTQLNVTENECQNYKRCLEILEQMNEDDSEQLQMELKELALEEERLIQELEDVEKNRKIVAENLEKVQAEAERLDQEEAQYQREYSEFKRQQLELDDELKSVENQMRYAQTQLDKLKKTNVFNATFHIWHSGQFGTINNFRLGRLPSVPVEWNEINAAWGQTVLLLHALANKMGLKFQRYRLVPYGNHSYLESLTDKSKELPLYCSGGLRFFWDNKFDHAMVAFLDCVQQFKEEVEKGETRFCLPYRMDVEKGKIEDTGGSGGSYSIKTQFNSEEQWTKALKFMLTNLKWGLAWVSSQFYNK
UniProt P11142: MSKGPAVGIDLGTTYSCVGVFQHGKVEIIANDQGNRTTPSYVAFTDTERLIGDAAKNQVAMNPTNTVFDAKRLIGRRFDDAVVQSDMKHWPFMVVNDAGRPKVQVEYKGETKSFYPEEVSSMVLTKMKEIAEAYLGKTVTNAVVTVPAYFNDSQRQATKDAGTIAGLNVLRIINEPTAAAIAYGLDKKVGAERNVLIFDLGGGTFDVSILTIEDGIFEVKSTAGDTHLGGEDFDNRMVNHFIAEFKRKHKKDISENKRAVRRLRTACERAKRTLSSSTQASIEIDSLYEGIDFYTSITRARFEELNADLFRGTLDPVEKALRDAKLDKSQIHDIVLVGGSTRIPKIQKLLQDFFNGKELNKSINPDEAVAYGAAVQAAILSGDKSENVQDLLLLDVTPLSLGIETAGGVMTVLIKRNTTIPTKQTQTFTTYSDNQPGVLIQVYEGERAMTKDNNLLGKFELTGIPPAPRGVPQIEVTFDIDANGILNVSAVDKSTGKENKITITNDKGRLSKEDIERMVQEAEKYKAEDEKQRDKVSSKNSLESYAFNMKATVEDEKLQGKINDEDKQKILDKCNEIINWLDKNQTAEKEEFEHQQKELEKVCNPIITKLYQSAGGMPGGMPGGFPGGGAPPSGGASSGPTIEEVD

Positions count from the first letter of the chain named. No constants are given. Whether binding was seen depends on the method and setting. For some of these results: Binding seen in cells or lysates may run through a third protein. Some binding calls cover weakened binding; strength is not graded here. For some of these results: Where a sequence is shown, tags or fusion partners need not be part of it.

For assay [1], the target named is T1, Myc-ULK1 WT (UniProt O75385).
T1 sequence: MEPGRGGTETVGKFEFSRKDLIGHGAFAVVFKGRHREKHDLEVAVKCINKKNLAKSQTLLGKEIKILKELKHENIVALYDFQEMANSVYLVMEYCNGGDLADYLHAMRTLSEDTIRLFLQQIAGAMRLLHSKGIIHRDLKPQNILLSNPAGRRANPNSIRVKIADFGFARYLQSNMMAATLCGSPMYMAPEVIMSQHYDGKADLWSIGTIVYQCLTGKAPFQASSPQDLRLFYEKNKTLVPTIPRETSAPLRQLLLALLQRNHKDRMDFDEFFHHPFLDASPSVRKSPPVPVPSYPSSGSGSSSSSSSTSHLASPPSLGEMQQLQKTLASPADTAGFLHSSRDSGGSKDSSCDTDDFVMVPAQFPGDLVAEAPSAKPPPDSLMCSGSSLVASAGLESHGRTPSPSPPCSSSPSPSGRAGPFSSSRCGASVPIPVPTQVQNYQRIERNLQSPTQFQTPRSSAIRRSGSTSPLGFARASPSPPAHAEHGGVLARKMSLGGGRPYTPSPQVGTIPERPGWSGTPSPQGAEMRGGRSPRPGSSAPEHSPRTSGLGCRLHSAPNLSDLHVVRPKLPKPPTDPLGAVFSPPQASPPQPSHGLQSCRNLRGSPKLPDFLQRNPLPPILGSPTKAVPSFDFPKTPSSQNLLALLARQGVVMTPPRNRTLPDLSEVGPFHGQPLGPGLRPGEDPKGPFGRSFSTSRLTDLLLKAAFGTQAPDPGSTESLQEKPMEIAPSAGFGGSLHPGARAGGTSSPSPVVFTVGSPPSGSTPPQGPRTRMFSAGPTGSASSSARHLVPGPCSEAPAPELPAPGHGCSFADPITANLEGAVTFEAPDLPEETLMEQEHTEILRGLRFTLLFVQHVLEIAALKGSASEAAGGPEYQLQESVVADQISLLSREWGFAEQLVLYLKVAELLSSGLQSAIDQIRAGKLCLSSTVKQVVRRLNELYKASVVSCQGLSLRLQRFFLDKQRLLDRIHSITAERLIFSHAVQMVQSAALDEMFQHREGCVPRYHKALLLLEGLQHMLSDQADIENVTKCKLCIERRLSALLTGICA
In words: co-IP; semi-endogenous: Myc-ULK1 variants transfected, endogenous partners detected in the IP by their antibodies.

In assay [2] the target is T2, Myc-ULK1 S423A (UniProt O75385).
T2 sequence: T1 sequence with S423A
The description is as above.

For assay [3], the target named is T3, Myc-ULK1 S423D (UniProt O75385).
T3 sequence: T1 sequence with S423D
The assay is described as above.

For assay [4], the target named is T1, Myc-ULK1 WT. In words: co-IP; both partners tagged and co-transfected into HEK293T for 24 h; IP with anti-Myc antibody (IgG or Myc control); western blot.
Assay [5] deals with T2, Myc-ULK1 S423A. Described as above.
Assay [6] has as its target T3, Myc-ULK1 S423D. The assay is described as above.
The target of assay [7] is T4, GST-ULK1 (UniProt O75385).
T4 sequence: T1 sequence
In words: pull-down; GST-ULK1 (or GST) co-transfected with the tagged partner in HEK293T; lysate pulled down with glutathione agarose at 4 °C overnight; western blot.

For assay [8], the target named is T5, ULK1 (endogenous) (human (endogenous in HeLa)) (UniProt O75385).
T5 sequence: T1 sequence
Kind of assay: co-IP; endogenous proteins, HeLa lysate; IP with anti-ULK1 or anti-STX17 antibody or IgG; western blot; cells also serum-starved, treated with CQ, PMA or GÖ6983, or transfected with Myc-ULK1 variants.

Assay [9] addresses T6, GST-ULK1 279–525 (from bacteria) (UniProt O75385).
T6 sequence: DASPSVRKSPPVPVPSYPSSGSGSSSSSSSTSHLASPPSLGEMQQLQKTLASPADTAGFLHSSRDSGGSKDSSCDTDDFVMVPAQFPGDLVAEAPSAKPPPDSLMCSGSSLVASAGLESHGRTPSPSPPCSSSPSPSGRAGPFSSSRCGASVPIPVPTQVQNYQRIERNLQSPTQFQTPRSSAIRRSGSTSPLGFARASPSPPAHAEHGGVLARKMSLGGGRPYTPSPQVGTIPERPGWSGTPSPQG
Kind of assay: in vitro binding assay; recombinant GST-ULK1 279–525 (from bacteria) and His-PKCα (from insects); both purified.

The target of assay [10] is T7, GST-ULK1 279–525 (truncation, in mammalian cells) (UniProt O75385).
T7 sequence: T6 sequence
In words: pull-down; GST-ULK1 truncations transfected into HeLa for 24 h; glutathione beads; endogenous STX17 detected with STX17 antibody.

The target of assay [11] is T8, STX17 (endogenous) (human (endogenous in HeLa)), P56962.
T8 chain: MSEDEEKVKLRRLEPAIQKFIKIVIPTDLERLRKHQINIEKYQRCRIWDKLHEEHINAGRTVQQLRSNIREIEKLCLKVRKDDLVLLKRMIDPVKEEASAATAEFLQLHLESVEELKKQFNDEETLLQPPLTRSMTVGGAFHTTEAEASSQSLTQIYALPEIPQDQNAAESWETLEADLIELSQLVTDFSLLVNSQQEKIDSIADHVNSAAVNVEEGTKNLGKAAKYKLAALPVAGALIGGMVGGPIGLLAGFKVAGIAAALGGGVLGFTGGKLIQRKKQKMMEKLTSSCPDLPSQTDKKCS
Kind of assay: co-IP; endogenous proteins, HeLa lysate; IP with anti-ULK1 or anti-STX17 antibody or IgG; western blot; cells also serum-starved, treated with CQ, PMA or GÖ6983, or transfected with Myc-ULK1 variants. The following applies: remark: other sources report otherwise.

Assay [12] deals with T9, Myc-ULK1 WT, O75385.
T9 chain: T1 sequence
In words: co-IP; both partners tagged and co-transfected into HEK293T for 24 h; IP with anti-Myc antibody (IgG or Myc control); western blot. The note with it: remark: other sources report otherwise.

On to “BECN1 (endogenous) (from UniProt Q14457 1-450)”, for which the binding entry in [1], in [2] and in [3] was “binds” in each case.

For the molecule Flag-BECN1 (from UniProt Q14457 1-450), the binding entry in assay [4], in assay [5] and in [6] was “binds” each time.

As for “GFP-STX17 157–275 (from UniProt P56962 157-275) (domain or fragment)”, the binding entry in assay [7] was “binds”.

With “HA-PKCα (from UniProt P17252 1-672) (enzyme)”, the binding entry in [7] was “binds”.

In the case of “HSC70 (endogenous) (from UniProt P11142 1-646)”, the binding entry in assay [8] is “binds”.

For the molecule “His-PKCα (from insects) (from UniProt P17252 1-672) (enzyme)”, the binding result in assay [9] was “binds”.

Regarding “PKCα (endogenous) (from UniProt P17252 1-672) (enzyme)”, the binding entry in assay [8] was “binds”.

Regarding “STX17 (endogenous) (from UniProt P56962 1-302)”, the binding result in assay [2], in [3] and in assay [10] was “binds” throughout.

B1: VAMP8 (endogenous), Q9BV40 1-100 (protein)
chain: MEEASEGGGNDRVRNLQSEVEGVKNIMTQNVERILARGENLEHLRNKTEDLEATSEHFKTTSQKVARKFWWKNVKMIVLICVIVFIIILFIVLFATGAFS
Take B1: the binding entry in assay [11] is listed as “binds”.

B2: Flag-SBP-STX17, P56962 1-302 (protein)
chain: T8 chain
On to B2, for which the binding entry in [12] is on record as “binds”.
